For part of these data: A negative result means that nothing was seen under these conditions. For part of these data: The comparison behind a weaker result is the experiment's own reference, which may not be listed here. For part of these data: Tags and fusion partners may be left off the protein sequences shown.
Assays:
[1] = molecular target: T1, Factor V heavy chain (UniProt P12259); assay: SPR; conditions: 2'-F C and U; 5' biotin and PEG11 spacer; three runs: 105.1, 59.46, 57.77; HBS 2 mM CaCl2, 25 C; label: 5'-biotin; variant of T18.3
T1 sequence (looked up, limits assumed): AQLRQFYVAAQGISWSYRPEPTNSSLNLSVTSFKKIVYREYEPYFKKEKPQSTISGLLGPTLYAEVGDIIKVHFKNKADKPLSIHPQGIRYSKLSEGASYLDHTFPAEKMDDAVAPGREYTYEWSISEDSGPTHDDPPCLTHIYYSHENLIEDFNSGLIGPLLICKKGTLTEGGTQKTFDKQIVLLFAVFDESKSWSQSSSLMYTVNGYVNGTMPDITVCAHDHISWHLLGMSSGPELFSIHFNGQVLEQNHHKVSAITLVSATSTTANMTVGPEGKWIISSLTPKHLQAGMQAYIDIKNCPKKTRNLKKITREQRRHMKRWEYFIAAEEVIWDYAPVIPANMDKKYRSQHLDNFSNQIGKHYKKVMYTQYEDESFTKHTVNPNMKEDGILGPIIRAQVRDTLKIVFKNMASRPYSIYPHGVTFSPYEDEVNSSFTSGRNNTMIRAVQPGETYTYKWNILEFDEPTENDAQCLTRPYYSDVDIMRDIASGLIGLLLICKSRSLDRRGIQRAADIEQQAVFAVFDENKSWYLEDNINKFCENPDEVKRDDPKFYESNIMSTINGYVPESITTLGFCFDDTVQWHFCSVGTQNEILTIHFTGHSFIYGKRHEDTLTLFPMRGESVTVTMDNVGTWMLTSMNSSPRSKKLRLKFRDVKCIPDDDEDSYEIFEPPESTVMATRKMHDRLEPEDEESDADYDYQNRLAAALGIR

Chains of the proteins cited; added tags and fusions are not shown. A line that says so, or that is headed by a name, gives the form on record, which may keep a tag or linker.
Coagulation Factor Va (FVa), modified (Homo sapiens), one chain, as listed by the source: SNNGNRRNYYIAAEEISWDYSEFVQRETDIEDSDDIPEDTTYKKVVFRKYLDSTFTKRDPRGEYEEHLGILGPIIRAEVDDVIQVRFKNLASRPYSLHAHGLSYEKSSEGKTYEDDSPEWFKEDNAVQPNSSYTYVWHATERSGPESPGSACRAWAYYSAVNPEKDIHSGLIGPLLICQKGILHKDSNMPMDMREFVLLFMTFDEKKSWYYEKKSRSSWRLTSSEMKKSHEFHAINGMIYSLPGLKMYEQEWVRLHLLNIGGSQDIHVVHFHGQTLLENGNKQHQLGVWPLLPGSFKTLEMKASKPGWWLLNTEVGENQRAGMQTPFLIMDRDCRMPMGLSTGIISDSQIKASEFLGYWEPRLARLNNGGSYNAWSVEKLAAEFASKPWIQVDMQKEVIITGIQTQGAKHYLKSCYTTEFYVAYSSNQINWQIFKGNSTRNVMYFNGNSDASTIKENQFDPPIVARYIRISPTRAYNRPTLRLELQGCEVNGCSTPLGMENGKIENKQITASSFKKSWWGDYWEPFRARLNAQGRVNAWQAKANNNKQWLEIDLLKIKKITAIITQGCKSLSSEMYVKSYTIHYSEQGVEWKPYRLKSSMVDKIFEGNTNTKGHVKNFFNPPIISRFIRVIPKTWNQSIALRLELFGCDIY

[2] = tested on: Coagulation Factor Va (FVa), modified (Homo sapiens); assay: inhibition of the protein; conditions: 2'-F C and U, label: 5'-32P, dose not given here

## GGACUUGGAUAACCUCACCGCAAUGGCGGCUUGUCAGACGACUCGCUGAGGAUCCGAG [T18.3 biotinylated]
[1]
  binding result: binds more weakly

## GGAUCCAACGCACAAUUACGUGCCGGUUCAGACGACUCGCUGAGGAUCC [11Mut2]
[2]; no significant reduction of meizothrombin generation, variant of 11HMT
  functional effect of the aptamer: not active

## GGAUCCAACGCACAAUUACGUGCCUUGUCAGACGACUCGCUGAGGAUCC [11HMT]
[2]; reduces meizothrombin generation, less potent than T18.3, variant of FVa R9c11
  functional effect of the aptamer: active

Reference: patent US20170355992
